Results deposited as PubChem BioAssay AID1671195 (Yale University, 2021)
Here is one part, drawn at random, of about 22,000 reagents. Over the whole deposit, about 1,510 (6.9%) got an active call. 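Active includes knockdowns raising or lowering LDL uptake; positive z-scores mean more uptake, negative mean less.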

Screen: 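Regulators of LDL receptor activity judged by labelled LDL uptake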 (primary screen)
System: human Huh7 hepatoma cells
Reagent: siRNA pool against human genes, 18 nM
Duration: about 2 to 2.5 days of knockdown, then 8 h LDL uptake
Challenge: DiI-labelled LDL at 30 µg/ml for 8 h, in lipoprotein-deficient serum medium
Read-out: 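Fluorescent LDL signal imaged in cells, scaled to the plate median, robust z-score for each replicate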
Direction: robust z-score: higher = more LDL uptake after knockdown
Call rule: 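a gene counts as active if at least two replicate z-scores exceed ±2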

no.	target gene	robust z-score, replicate 1	robust z-score, replicate 2	robust z-score, replicate 3	call
1	GABPB2 (GA binding protein transcription factor subunit beta 2)	-1.01	-0.271	-0.00633	inactive
2	C1R (complement C1r)	-0.731	-1.59	-0.66	inactive
3	TIMM23B (translocase of inner mitochondrial membrane 23 homolog B)	-1.89	-1.31	-2.22	inactive
4	SFMBT2 (Scm like with four mbt domains 2)	-0.258	-0.607	-0.805	inactive
5	MAGEB2 (MAGE family member B2)	-0.73	-0.672	-0.336	inactive
6	DIS3 (DIS3 exosome endoribonuclease and 3'-5' exoribonuclease)	-0.426	0.261	-0.247	inactive
7	FAM117B (family with sequence similarity 117 member B)	-0.476	-1.12	-1.1	inactive
8	NFIC (nuclear factor I C)	-0.97	-1.25	-1.13	inactive
9	SNRPF (small nuclear ribonucleoprotein polypeptide F)	-0.644	-0.346	-1.38	inactive
10	DEFB4A (defensin beta 4A)	-1.49	-1.07	-2.46	inactive
11	TM4SF4 (transmembrane 4 L six family member 4)	3.31	0.514	0.609	inactive
12	STRA6 (signaling receptor and transporter of retinol STRA6)	2.38	1.52	2.17	active
13	TMEM168 (transmembrane protein 168)	1.23	0.369	0.643	inactive
14	SKINT1L (Skint1 like (pseudogene))	0.267	-0.0229	0.00194	inactive
15	RTL8C (retrotransposon Gag like 8C)	0.053	1.05	0.176	inactive
16	TINAGL1 (tubulointerstitial nephritis antigen like 1)	2.92	2.55	1.96	active
17	EHHADH-AS1 (EHHADH antisense RNA 1)	-0.414	-0.467	-0.423	inactive
18	GPR146 (G protein-coupled receptor 146)	-2.07	0.833	0.236	inactive
19	UFM1 (ubiquitin fold modifier 1)	-1.59	-1.71	-0.994	inactive
20	ZBTB24 (zinc finger and BTB domain containing 24)	0.602	0.461	0.414	inactive
21	SEMA3B (semaphorin 3B)	-1.24	0.358	-0.405	inactive
22	TMEM186 (transmembrane protein 186)	-0.345	0.981	-0.00385	inactive
23	LOC440552 (retired record)	1.57	1.13	1.06	inactive
24	LOC442432 (retired record)	1.16	1.29	1.41	inactive
25	SCGB1D4 (secretoglobin family 1D member 4)	-0.115	0.525	-0.359	inactive
26	IRF3 (interferon regulatory factor 3)	0.641	0.693	0.723	inactive
27	IFNAR1 (interferon alpha and beta receptor subunit 1)	0.607	0.554	0.379	inactive
28	LOC440121 (retired record)	-0.59	-0.816	-0.869	inactive
29	LINC00336 (long independently transcribed non-coding RNA 336)	0.149	-2.23	-0.413	inactive
30	PGBD3 (piggyBac transposable element derived 3)	-0.352	-0.179	-0.0429	inactive
31	DCLRE1A (DNA cross-link repair 1A)	-0.775	-0.272	3.12	inactive
32	ABLIM3 (actin binding LIM protein family member 3)	0.17	0.718	0.659	inactive
33	HOXC6 (homeobox C6)	-0.741	0.199	0.122	inactive
34	NFKBIB (NFKB inhibitor beta)	-1.42	-1.64	-1.36	inactive
35	SFXN2 (sideroflexin 2)	-0.775	-0.44	-0.39	inactive
36	PTEN (phosphatase and tensin homolog)	1.81	2.04	1.79	inactive
37	DPM2 (dolichyl-phosphate mannosyltransferase subunit 2, regulatory)	-1.79	-1.71	-1.94	inactive
38	CABP7 (calcium binding protein 7)	-0.092	0.37	-0.0815	inactive
39	UGT3A2 (UDP glycosyltransferase family 3 member A2)	0.859	0.453	2.64	inactive
40	ZNF525 (zinc finger protein 525)	-0.0785	0.184	-0.256	inactive
41	MMAA (metabolism of cobalamin associated A)	-0.00229	0.193	0.635	inactive
42	PIK3C2G	0.388	1.37	-0.296	inactive
43	NICN1 (nicolin 1, tubulin polyglutamylase complex subunit)	0.887	1.04	2.29	inactive
44	AWAT1 (acyl-CoA wax alcohol acyltransferase 1)	0.708	0.531	0.386	inactive
45	RPL13AP17 (ribosomal protein L13a pseudogene 17)	-0.35	-0.204	-0.275	inactive
46	PTCD1 (pentatricopeptide repeat domain 1)	1.2	1.24	1.17	inactive

Taken from above.
Entry of TINAGL1 (tubulointerstitial nephritis antigen like 1) under “robust z-score, replicate 2”: 2.55
Value of PTEN (phosphatase and tensin homolog) under “robust z-score, replicate 2”: 2.04
Entry of NFKBIB (NFKB inhibitor beta) in “robust z-score, replicate 2”: -1.64
HOXC6 (homeobox C6), call: inactive
Entry for MAGEB2 (MAGE family member B2) in “robust z-score, replicate 2”: -0.672
